Measurements published in patent publication US20200375691A1, “PERACETIC ACID VAPOR STERILIZATION SYSTEM” (Medivators Inc., priority 2018, published 2020).

System: biological indicators (BIs)
Assay: Heated 90 cm bubbler runs, biological indicators in beakers, Tyvek and process challenge devices
Format: cell-based
Conditions: PAA Bubbler technology
Procedure: In this example embodiment of bubbler 430 and system 420, the Bubbler System was modified to accept a 50 mm outside diameter by 90 cm long glass tube (5 mm wall thickness) attached to a 417-liter REVOX system. During all experiments, 250 mL of REVOX PA liquid was measured by graduated cylinder and poured into the 90 cm Bubbler. The Bubbler System was connected to the 417-liter REVOX sterilization chamber referred to as an improved bubbler vessel configuration. Air was drawn into bubbler 430 using only the force of the vacuum within sterilization chamber. A simple on-off valve was used to control the flow of air through the bubbler, allowing for “blocks” to be created in a similar manner to a normal REVOX cycle. In several cases a flow meter and/or infrared vapor detector was used to monitor the output of the Bubbler. […]
The difference between heated and non-heated bubbler systems is the resulting humidity present in the chamber during the sterilization cycles. […] Maximum humidity levels were recorded by visual observation. […]
Cycle 254 tested a single 15-minute contact time on BIs in the chamber and within a Tyvek pouch. […] The bone matrix, however, is readily porous and should be easily sterilized under these conditions. […]

CC(=O)OO [PAA, peracetic acid]
relative humidity at which PAA vapor is efficacious: greater than or equal to 80 % relative humidity
